Test: Estradiol uptake studies (drug loading on polymer coated stents, HPLC)

In the case of `C[C@]12CC[C@@H]3c4ccc(O)cc4CC[C@H]3[C@@H]1CC[C@@H]2O` [estradiol, 17β-estradiol], the drug total loading (Example 1.1: 15 mm BiodivYsio DD stents, copolymer d), immersed in 20 mg/ml solution 30 minutes) was 45-65 μg per stent, the “amount on each balloon” value (Example 1.2) was 190 to 220 µg and the “level of drug on the stents” value (Example 1.2: 18 mm stents premounted on balloon, dipping plus pipetting steps) was 225-250 μg per stent. For the same compound, the area distribution (Example 1.3, 3 mm balloon system) was 2.6 μg/mm^2, the “mean loading per stent” value (Example 1.3, 3 mm balloon system, 5 samples) was 2.59 µg and the area distribution (Example 1.3, 4 mm balloon system) was 2.4 μg/mm^2. The “mean level of drug” value (Example 1.3, 4 mm balloon system, 3 samples) was 240 µg.

From patent US8512733B2, “Stents with drug-containing amphiphilic polymer coating” (Abbott Laboratories, priority 2001, dated 2013)
